# Data published in PubChem BioAssay AID2417 (National Center for Advancing Translational Sciences (NCATS), 2010).
# Out of some 140,000 compounds screened, about 4,300 (3.1%) were called active. The shares of active, inactive and inconclusive entries below differ from those in the screen.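 Rule for the calls: active = readout at or below -70, meaning at least 70% loss of cells showing the perinucleolar compartment, a nuclear body marking cancer cells; inconclusive = readout between -30 and a set limit; inactive = the rest.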
# Assay: High Content Assay for Compounds that inhibit the Assembly of the Perinucleolar Compartment;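 note: plate controls were DMSO wells for no effect and camptothecin positive control wells for full effect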
# Conditions: PC3M PTB-GFP, PNC prevalence imaging, 16 h; at 10 µM; stronger effect = lower value
# Method in brief: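 PC3M cells stably expressing PTB-GFP, 750–1000 cells/well, treated 16 h at 37 °C with compound (23 nl of library stock), in duplicate. After paraformaldehyde fixation and Hoechst stain, imaged at 20x; PNC prevalence scored by image analysis.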
row,SMILES,"activity change (PNC), negative = inhibition"
1,CCOC(=O)c1cccc(NC(=O)C2(S(=O)(=O)c3ccc(Cl)cc3)CC2)c1,inactive: 20.3%
2,COc1ccc(NC(=O)c2oc3ccccc3c2NC(=O)c2ccc3c(c2)OCO3)cc1,inconclusive: -42.2%
3,COc1ccc(OCC(=O)Nc2cccc(-c3nc4ccccc4o3)c2)cc1,inactive: 35%
4,CCOC(=O)c1c(NC(=O)c2cccnc2)sc(C)c1C,inactive: 16.2%
5,CCCn1c(SCC(=O)Nc2ccccc2C(=O)OC)nc2c1c(=O)n(C)c(=O)n2C,inconclusive: -71.1%
6,Nc1nc(C2CC(=O)OC23CCCCC3)cs1 (centres undefined),active: -119%
7,Nc1nonc1C(=O)NC(c1ccccc1)c1ccccc1,inactive: 5.98%
8,O=C(CNC(=S)N(Cc1ccccc1F)C1CCCCC1)NC1CC1,inactive: 8.71%
9,CCOc1cc(-c2nc3cc(C)ccn3c2NCC2CCCO2)ccc1O (centres undefined),inconclusive: -39.8%
10,O=C1CC(C(=O)O)S/C(=N\NC(=O)c2ccccc2)N1 (centres undefined),inconclusive: -41.3%
11,Cc1ccc(-c2nnc(-c3ccncc3)n2-c2ccc(C)cc2)cc1,inconclusive: -34.4%
12,O=C(C(c1ccccc1)c1ccccc1)N1CCN(Cc2ccncc2)CC1,inconclusive: -50.4%
13,COc1cccc(C2c3c(oc4ccc(Cl)cc4c3=O)C(=O)N2c2cc(C)on2)c1OC (centres undefined),active: -136%
14,CC(=O)N(C)c1ccc(NC(=O)COc2ccc(Br)cc2C)cc1,inactive: -23.9%
15,Cc1cc(C(=O)COC(=O)c2cc(Cl)ccc2N)c(C)n1Cc1ccco1,inconclusive: -66.9%
16,C/C(CCC(=O)OC[C@H]1O[C@H](C#Cc2ccccc2)C=C[C@@H]1Oc1ccc(C)cc1)=N\OC[C@@H](O)[C@H]1O[C@@H]2OC(C)(C)O[C@@H]2[C@H]1O,inactive: 49%
17,O=C(OCC1CC(c2ccccc2)=NO1)c1ccc(Br)cc1 (centres undefined),inconclusive: -31.7%
18,O=C(NCc1ccco1)c1ccc(CN2CCOCC2)cc1,inconclusive: -42.8%
19,Cc1nc(N[C@@H](Cc2c[nH]c3ccccc23)C(=O)O)c2oc3ccccc3c2n1,inactive: -28.8%
20,CC1CC(C)(C)NC(=O)O1 (centres undefined),inactive: 4.2%

row,SMILES,"activity change (PNC), negative = inhibition"
1,CCOC(=O)c1nnc(-c2cccs2)nc1NC(C)C,inconclusive: -43.9%
2,O=C(O)c1ccc(/C=N/Nc2nnnn2-c2ccccc2)cc1,inconclusive: -53.3%
3,O=C(CCCOc1ccccc1)N1CCN(C(=O)c2ccco2)CC1,inconclusive: -45.6%
4,Cn1c2ccccc2c2ncn(CCCN3CCOCC3)c(=O)c21,inconclusive: -71.5%
5,COc1cccc(Cn2c(Oc3ccccc3)nc3c2c(=O)n(C)c(=O)n3C)c1,inconclusive: -36%
6,CCN(Cc1cc2cc(OC)ccc2[nH]c1=O)C(=O)Cc1ccc(OC)cc1,inconclusive: -52.1%
7,O=C(N/N=C\c1c(O)ccc2ccccc12)c1ccc(Cn2cccn2)o1,inactive: -14.9%
8,CC1CCN(C(=O)CSCc2ccc(Cl)cc2)CC1,inactive: 4.53%
9,CCNC(=O)CN(CCc1ccccc1)S(=O)(=O)c1ccc(OC)cc1,inactive: -6.47%
10,COC(=O)c1ccc(CNC(=O)/C=C/c2cc([N+](=O)[O-])ccc2OC(F)F)cc1,inconclusive: -35.9%
11,CN(C)c1ccc(/C=N\NC(=S)SCN2C(=O)C3CCC(C)(C2=O)C3(C)C)cc1 (centres undefined),inactive: -10.4%
12,CC(C)OC(=O)c1cccc(-c2ccc(C=O)o2)c1,active: -108%
13,CCOC(=O)C1CCCN(c2nnnn2-c2ccccc2)C1 (centres undefined),inactive: -26.3%
14,Cc1ccccc1NC(=O)CC1SCCNC1=O (centres undefined),active: -91.5%
15,O=C(/C=N/O)NCc1cccnc1,inconclusive: -40.1%
16,CCNCCOC(c1ccccc1)c1ccccc1,inconclusive: -42.1%
17,O=C(/C=C/c1ccc2c(c1)OCO2)Nc1c(C(=O)O)[nH]c2ccccc12,inactive: -24.7%
18,CCNC(=S)SCCOc1ccccc1C,inconclusive: -43.5%
19,S=C(Nc1ccc(Br)cc1)NC1CCCCC1,inactive: 14.4%
20,C/C(=N/OC(=O)c1ccc(C)cc1)c1cccs1,inactive: 37.3%

# By substructure, those above containing a Cl atom
row,SMILES,"activity change (PNC), negative = inhibition"
1,CCOC(=O)c1cccc(NC(=O)C2(S(=O)(=O)c3ccc(Cl)cc3)CC2)c1,inactive: 20.3%
13,COc1cccc(C2c3c(oc4ccc(Cl)cc4c3=O)C(=O)N2c2cc(C)on2)c1OC (centres undefined),active: -136%
15,Cc1cc(C(=O)COC(=O)c2cc(Cl)ccc2N)c(C)n1Cc1ccco1,inconclusive: -66.9%
8,CC1CCN(C(=O)CSCc2ccc(Cl)cc2)CC1,inactive: 4.53%

# More structures:

row,SMILES,"activity change (PNC), negative = inhibition"
1,CC1CCCCC1NC(=O)/C(C#N)=C/c1ccccc1F (centres undefined),inactive: -13.1%
2,CC1(C)N([O-])C(c2ccccc2)=C[N+](=O)C1(C)C,inconclusive: -59.3%
3,Cc1nn(CCCC(=O)Nc2cc(Oc3ccccc3)cc([N+](=O)[O-])c2)c(C)c1[N+](=O)[O-],inactive: -4.62%
4,CC(NS(=O)(=O)c1ccc(CCC(=O)N2CCN(C)CC2)cc1)c1ccccc1 (centres undefined),active: -81.7%
5,O=C(O)COc1ccccc1C(Nc1ccccn1)c1cc(Cl)c2cccnc2c1O (centres undefined),inconclusive: -53%
6,CC1=CC(C)=Nc2ccc(C)cc2N1,inconclusive: -35.7%
7,C/C(N)=C(/C#N)C(=O)CSc1nnc(SCc2ccc(Cl)cc2)s1,inconclusive: -36%
8,COc1cc(C2C=C(Nc3ccccc3)C(=O)N2c2ccccc2)ccc1O (centres undefined),inconclusive: -33.4%
9,CCCN1C(=O)CC(C(=O)OC)=C1C,inconclusive: -47%
10,Cc1ccc(C)c(-n2nnnc2Sc2nnnn2-c2ccccc2)c1,inactive: -0.413%
11,Cc1cccc(OCc2ccc(C(=O)Nc3ccc(F)cc3)cc2)c1,inconclusive: -37.3%
12,CC(=O)C(=Nc1ccccc1Cl)NNc1ccc(Cl)cc1,inactive: -5.57%
13,COc1c(C)cc(S(=O)(=O)N2CCCC2)c(C)c1C,inconclusive: -31.6%
14,O=S(=O)(c1cc(Cl)ccc1Cl)N1CCCCC1,inconclusive: -53.5%
15,Cc1ccc2c(c1)-c1c(cnn1CC(=O)N(CCC#N)c1ccccc1)CO2,inactive: 47.4%
16,CCOC(=O)CSc1nnc(CNC(=O)c2cccs2)n1Cc1ccccc1,inconclusive: -54.5%
17,CCn1c(SCC(=O)Nc2ccccc2N2CCOCC2)nnc1-c1ccccc1,inconclusive: -47.5%
18,COc1ccc(CCNC(=O)CSc2nc(N)c3c(C)c(C)oc3n2)cc1OC,inconclusive: -59.8%
19,Cc1ccc(S(=O)(=O)Oc2ccc(/C=N/NC(=O)c3nn(C)cc3Cl)cc2)cc1,active: -100%
